Source: PubChem BioAssay AID1224828 (NIAID, 2016)

- Purpose: 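Regulators linking TLR4 signalling to p65 nuclear translocation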 (primary screen)
- Cell system: mouse RAW264.7 G9 macrophage reporter cells (GFP-p65, Tnf promoter-mCherry)
- Reagents: siRNA pool against mouse genes, 100 nM
- Time to read-out: 2 days siRNA transfection, then 40 min LPS before fixation
- Conditions: LPS (Salmonella minnesota R595) at 10 ng/ml
- Detection: 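Imaged p65 nuclear translocation ratio, normalised to the plate median, converted to robust z-scores and averaged across two replicates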
- Scale: p65 translocation robust z-score: higher = more nuclear NF-kappaB p65 after LPS than the plate median; nuclear/cytoplasmic p65 ratio: higher = more nuclear NF-kappaB p65
- Active means: 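Called active when z exceeds 3.3 or falls under -1.56 (median of Tlr4 controls), giving activity score of at least 50; no calls for control wells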
- Calls: active = hit (p65 shift raised or lowered); inactive = no clear change
The whole screen tested about 17,000 reagents; below is an unselected part. In the full data, 762 (4.5%) were called active. 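Active calls include both raised and lowered p65 entry, mostly lowered; wells with fewer than 50 cells lack a z-score.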 Raw values are not corrected between plates. The numbers tell different reagents against one gene apart. A reagent listed more than once was tested more than once; the source does not tell the runs apart.

| Gene | pool no. | p65 translocation robust z-score | nuclear/cytoplasmic p65 ratio, rep 1 | nuclear/cytoplasmic p65 ratio, rep 2 | low cell count flag | Call |
| --- | --- | --- | --- | --- | --- | --- |
| Adam1a (GeneID 280668) | 1 | 0.98 | 1.74 | 1.85 | enough cells to score | inactive |
| Stac2 (GeneID 217154) | 1 | -0.18 | 1.59 | 1.48 | enough cells to score | inactive |
| Txlnb (GeneID 378431) | 1 | – | 3.17 | 0.971 | fewer than 50 cells per well; well left out of scoring | inactive |
| Acvrl1 (GeneID 11482) | 1 | – | 1.47 | 1.22 | fewer than 50 cells per well; well left out of scoring | inactive |
| Dpcd (GeneID 226162) | 1 | 0.98 | 1.5 | 1.58 | enough cells to score | inactive |
| Coa6 (GeneID 67892) | 1 | – | 1.22 | 1.29 | fewer than 50 cells per well; well left out of scoring | inactive |
| Snrpb (GeneID 20638) | 1 | – | 1.52 | 1.3 | fewer than 50 cells per well; well left out of scoring | inactive |
| Wipf1 (GeneID 215280) | 1 | -0.26 | 1.54 | 1.51 | enough cells to score | inactive |
| Myog (GeneID 17928) | 1 | – | 1.21 | 1.31 | fewer than 50 cells per well; well left out of scoring | inactive |
| Trim65 (GeneID 338364) | 1 | – | 1.25 | 1.17 | fewer than 50 cells per well; well left out of scoring | inactive |
| Bricd5 (GeneID 319259) | 1 | 0.45 | 1.55 | 1.54 | enough cells to score | inactive |
| Sphkap (GeneID 77629) | 1 | – | 1.21 | 1.24 | fewer than 50 cells per well; well left out of scoring | inactive |
| Hsd3b7 (GeneID 101502) | 1 | 1.71 | 1.92 | 1.54 | enough cells to score | inactive |
| Fimp1 (GeneID 78118) | 1 | – | 1.24 | 1.49 | fewer than 50 cells per well; well left out of scoring | inactive |
| Gpr155 (GeneID 68526) | 1 | -0.03 | 1.47 | 1.61 | enough cells to score | inactive |
| Elk1 (GeneID 13712) | 1 | -0.14 | 1.26 | 1.34 | enough cells to score | inactive |
| Or1a1 (GeneID 404316) | 1 | – | 1.53 | 1.35 | fewer than 50 cells per well; well left out of scoring | inactive |
| Or1a1 (GeneID 404316) | 1 | 0.6 | 1.64 | 1.63 | enough cells to score | inactive |
| Ints3 (GeneID 229543) | 1 | 0.03 | 1.63 | 1.75 | enough cells to score | inactive |
| St6galnac6 (GeneID 50935) | 1 | 0.19 | 1.41 | 1.29 | enough cells to score | inactive |
| Or51i1 (GeneID 258819) | 1 | 2.45 | 1.69 | 1.62 | enough cells to score | inactive |
| Rnf31 (GeneID 268749) | 1 | 2.28 | 1.76 | 1.44 | enough cells to score | inactive |
| Evx1 (GeneID 14028) | 1 | 0.56 | 1.54 | 1.44 | enough cells to score | inactive |
| Or2t47 (GeneID 258495) | 1 | -3.04 | 1.13 | 1.04 | enough cells to score | active |
| Tdo2 (GeneID 56720) | 1 | – | 1.34 | 0.986 | fewer than 50 cells per well; well left out of scoring | inactive |
| Pdcd1lg2 (GeneID 58205) | 1 | – | 1.59 | 1.16 | fewer than 50 cells per well; well left out of scoring | inactive |
| Tor3a (GeneID 30935) | 1 | 1.96 | 1.23 | 1.4 | enough cells to score | inactive |
| Srrm1 (GeneID 51796) | 1 | 1.95 | 1.66 | 1.46 | enough cells to score | inactive |
| Vps29 (GeneID 56433) | 1 | 1.66 | 1.65 | 1.38 | enough cells to score | inactive |
| Sprr1a (GeneID 20753) | 1 | -0.21 | 1.41 | 1.19 | enough cells to score | inactive |
| Alg14 (GeneID 66789) | 1 | 1.55 | 1.61 | 1.62 | enough cells to score | inactive |
| Alkbh7 (GeneID 66400) | 1 | – | 1.32 | 1.24 | fewer than 50 cells per well; well left out of scoring | inactive |
| Olfr242 (GeneID 406175) | 1 | 0.19 | 1.59 | 1.49 | enough cells to score | inactive |
| Kcnj2 (GeneID 16518) | 1 | -0.52 | 1.35 | 1.36 | enough cells to score | inactive |
| Prpsap2 (GeneID 212627) | 1 | – | 1.91 | 1.41 | fewer than 50 cells per well; well left out of scoring | inactive |
| Klhl28 (GeneID 66689) | 1 | 0.57 | 1.25 | 1.6 | enough cells to score | inactive |
| Calcr (GeneID 12311) | 1 | 0.39 | 1.54 | 1.66 | enough cells to score | inactive |
| Zkscan5 (GeneID 22757) | 1 | 0.04 | 1.5 | 1.53 | enough cells to score | inactive |
| Znrf4 (GeneID 20834) | 1 | – | 1.15 | 1.17 | fewer than 50 cells per well; well left out of scoring | inactive |
| Cyb5b (GeneID 66427) | 1 | 0.42 | 1.44 | 1.36 | enough cells to score | inactive |
| R74862 (GeneID 97423) | 1 | 0.33 | 1.41 | 1.27 | enough cells to score | inactive |
| Nedd1 (GeneID 17997) | 1 | -0.99 | 1.69 | 1.39 | enough cells to score | inactive |
| Naxe (GeneID 246703) | 1 | 0.49 | 1.63 | 1.62 | enough cells to score | inactive |
| Rif1 (GeneID 51869) | 1 | 0.07 | 1.59 | 1.55 | enough cells to score | inactive |
| Kmt5a (GeneID 67956) | 1 | 0.53 | 1.73 | 1.65 | enough cells to score | inactive |
| Foxa2 (GeneID 15376) | 1 | 0.76 | 1.56 | 1.44 | enough cells to score | inactive |
| Mfap3 (GeneID 216760) | 1 | -0.94 | 1.37 | 1.24 | enough cells to score | inactive |
| Nkx2-1 (GeneID 21869) | 1 | 0.05 | 1.53 | 1.52 | enough cells to score | inactive |
| Wdr5b (GeneID 69544) | 1 | 1.42 | 1.87 | 1.63 | enough cells to score | inactive |
| Rps8 (GeneID 20116) | 1 | -1.34 | 1.21 | 1.09 | enough cells to score | inactive |
| Or2n1d (GeneID 258803) | 1 | -2.41 | 1.23 | 1.12 | enough cells to score | active |
| Olr1 (GeneID 108078) | 1 | -1.06 | 1.33 | 1.25 | enough cells to score | inactive |
| 2900060N12Rik (GeneID 102641621) | 1 | – | 1.19 | 1.33 | fewer than 50 cells per well; well left out of scoring | inactive |
| Spag16 (GeneID 66722) | 1 | 0.03 | 1.28 | 1.27 | enough cells to score | inactive |
| Ttr (GeneID 22139) | 1 | -0.25 | 1.47 | 1.47 | enough cells to score | inactive |
| Prr36 (GeneID 73072) | 1 | 0.77 | 1.92 | 1.58 | enough cells to score | inactive |
| Mylk2 (GeneID 228785) | 1 | 0.2 | 1.91 | 1.4 | enough cells to score | inactive |
| Prb1b (GeneID 381832) | 1 | -0.69 | 1.24 | 1.18 | enough cells to score | inactive |
| Prb1b (GeneID 381832) | 2 | -0.94 | 1.32 | 1.5 | enough cells to score | inactive |
| Lrrc39 (GeneID 109245) | 1 | 0.29 | 1.45 | 1.6 | enough cells to score | inactive |
| Polm (GeneID 54125) | 1 | – | 1.31 | 1.2 | fewer than 50 cells per well; well left out of scoring | inactive |
| Atrn (GeneID 11990) | 1 | -0.76 | 1.42 | 1.47 | enough cells to score | inactive |
| Kctd3 (GeneID 226823) | 1 | 1.32 | 1.84 | 1.51 | enough cells to score | inactive |
| Defb2 (GeneID 13215) | 1 | -0.14 | 1.52 | 1.56 | enough cells to score | inactive |
| Atp5if1 (GeneID 11983) | 1 | 1.57 | 1.81 | 1.76 | enough cells to score | inactive |
| Cnnm4 (GeneID 94220) | 1 | 1.03 | 1.73 | 1.4 | enough cells to score | inactive |
| L3mbtl2 (GeneID 214669) | 1 | 0.86 | 1.61 | 1.6 | enough cells to score | inactive |
| Fis1 (GeneID 66437) | 1 | – | 1.56 | 1.43 | fewer than 50 cells per well; well left out of scoring | inactive |
| Tiprl (GeneID 226591) | 1 | 0.47 | 1.48 | 1.46 | enough cells to score | inactive |
| Fasl (GeneID 14103) | 1 | -1.77 | 1.29 | 1.25 | enough cells to score | active |
| Sil1 (GeneID 81500) | 1 | – | 1.41 | 1.58 | fewer than 50 cells per well; well left out of scoring | inactive |
| Mturn (GeneID 68235) | 1 | 0.07 | 1.43 | 1.45 | enough cells to score | inactive |
| Spint4 (GeneID 78239) | 1 | 0.64 | 1.53 | 1.62 | enough cells to score | inactive |
| Rpl39 (GeneID 67248) | 1 | -1.1 | 1.23 | 1.13 | enough cells to score | inactive |
| Atosa (GeneID 235493) | 1 | -0.34 | 1.49 | 1.83 | enough cells to score | inactive |

Look-ups from the entries so far:
Value of Klhl28 (GeneID 66689) under “low cell count flag”: enough cells to score
R74862 (GeneID 97423), p65 translocation robust z-score: 0.33
Coa6 (GeneID 67892), nuclear/cytoplasmic p65 ratio, rep 1 → 1.22
Olfr242 (GeneID 406175), p65 translocation robust z-score = 0.19
Entry for Fis1 (GeneID 66437) in “nuclear/cytoplasmic p65 ratio, rep 2”: 1.43
Tor3a (GeneID 30935), nuclear/cytoplasmic p65 ratio, rep 2: 1.4
